Reference: publication PMC5296754
Results are given in words; binding and its absence hold for the method and conditions named. Some results given as binding are weak or reduced against the parent protein; the word gives no strength.

The chains behind the UniProt entries cited, without tags or fusion partners. Residues count along the entry.
UniProt P13128, 39-526: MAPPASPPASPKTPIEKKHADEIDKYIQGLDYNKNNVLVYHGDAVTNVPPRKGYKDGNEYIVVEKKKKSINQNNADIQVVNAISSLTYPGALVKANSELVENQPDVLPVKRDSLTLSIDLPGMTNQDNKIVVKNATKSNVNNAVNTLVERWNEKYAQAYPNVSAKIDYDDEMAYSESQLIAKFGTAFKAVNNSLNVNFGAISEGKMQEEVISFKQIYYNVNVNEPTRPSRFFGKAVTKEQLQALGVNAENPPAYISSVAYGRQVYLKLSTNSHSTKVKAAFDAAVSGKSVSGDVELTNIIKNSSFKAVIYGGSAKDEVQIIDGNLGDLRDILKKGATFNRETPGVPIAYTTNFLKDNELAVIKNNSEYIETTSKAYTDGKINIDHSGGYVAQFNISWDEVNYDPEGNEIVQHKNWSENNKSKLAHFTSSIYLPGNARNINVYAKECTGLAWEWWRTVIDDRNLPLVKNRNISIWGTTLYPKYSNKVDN

Legend:
[1] = biological target: Listeriolysin O (Listeria monocytogenes) (UniProt P13128); assay: high-speed atomic force microscopy; 500 nM protein added to POPC:Chol 1:1 supported lipid bilayer on mica; 20 mM MES, pH 5.6, 100 mM NaCl, 5 mM MgCl2, room temperature; oligomers on the membrane; both purified
[2] = biological target: Listeriolysin O (Listeria monocytogenes) (UniProt P13128); assay: transmission electron microscopy (negative stain); 500 nM protein with POPC:Chol multilamellar vesicles (10 mM lipids), 10 mM MES, 150 mM NaCl, pH 5.5, room temperature; contrasted with 1% uranyl acetate; oligomers on the membrane; both purified

## Listeriolysin O (from UniProt P13128 39-526)
[1]
  binding: binds
[2]
  binding: binds
